The results in this text go back to PMC6403468.

Protein sequences, listed by entry. Tags and fused reporters are not part of them. Residues count along the entry.
UniProt Q924X6, residues 29-996: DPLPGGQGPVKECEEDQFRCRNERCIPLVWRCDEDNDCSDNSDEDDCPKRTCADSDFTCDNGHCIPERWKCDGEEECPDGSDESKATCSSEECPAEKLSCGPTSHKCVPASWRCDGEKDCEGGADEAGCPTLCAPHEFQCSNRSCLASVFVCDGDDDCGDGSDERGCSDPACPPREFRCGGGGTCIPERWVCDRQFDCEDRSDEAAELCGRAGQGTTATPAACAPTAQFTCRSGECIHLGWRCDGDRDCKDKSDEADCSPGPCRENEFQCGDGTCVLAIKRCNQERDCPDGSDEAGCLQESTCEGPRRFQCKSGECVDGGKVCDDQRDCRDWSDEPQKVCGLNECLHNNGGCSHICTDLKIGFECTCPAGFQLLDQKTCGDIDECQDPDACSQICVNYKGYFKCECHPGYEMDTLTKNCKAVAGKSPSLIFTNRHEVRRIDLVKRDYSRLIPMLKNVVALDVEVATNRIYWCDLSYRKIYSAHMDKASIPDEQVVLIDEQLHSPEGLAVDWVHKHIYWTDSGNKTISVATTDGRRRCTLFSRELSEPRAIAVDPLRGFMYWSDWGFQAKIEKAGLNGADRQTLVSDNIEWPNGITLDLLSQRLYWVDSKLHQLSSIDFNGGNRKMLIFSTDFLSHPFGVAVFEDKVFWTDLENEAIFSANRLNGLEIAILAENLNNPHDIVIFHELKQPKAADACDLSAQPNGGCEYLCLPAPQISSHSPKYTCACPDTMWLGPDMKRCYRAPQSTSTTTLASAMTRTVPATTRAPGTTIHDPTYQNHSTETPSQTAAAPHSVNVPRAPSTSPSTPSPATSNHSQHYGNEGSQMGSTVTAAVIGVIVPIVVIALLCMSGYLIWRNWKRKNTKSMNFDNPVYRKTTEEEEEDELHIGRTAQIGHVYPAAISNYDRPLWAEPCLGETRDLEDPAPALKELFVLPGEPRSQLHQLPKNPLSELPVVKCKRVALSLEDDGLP

These are yes or no findings as the source states them, for the method shown. Binding seen in cells or lysates may run through a third protein. Some entries that bind do so weakly or less than the wild type.

This test has as its target ApoER2 fused to monomeric GFP (ApoER2_mGFP) (UniProt Q924X6). Nature of the test: co-IP; HEK293 cells expressing mGFP- and mCherry-tagged copies of one receptor, NP-40 lysis buffer, anti-GFP crosslinked to Protein A Sepharose, western blot with anti-mCherry. (A western blot detects proteins with antibodies after separation by electrophoresis.)

As for “ApoER2 fused to mCherry (ApoER2_mCherry) (from UniProt Q924X6 29-996) (receptor)”, the binding result is on record as “binds”.
